{"source": "PubChem BioAssay AID1159596 (NIAID, 2016)", "aim": "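Which toll-like receptor signalling genes are needed for TNF promoter activity driven by peptidoglycan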 (primary screen)", "cells": "human THP1 B5 monocytic reporter cells made macrophage-like with PMA", "reagents": "single siRNA against human genes", "time to read-out": "assayed 48 to 72 hours after siRNA transfection; peptidoglycan stimulation lasted 4 hours", "conditions": "Staphylococcus aureus peptidoglycan for 4 hours; dose not given", "read-out": "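TNF-alpha promoter firefly/renilla luciferase ratio after 4 h s. aureus peptidoglycan; plate median/MAD scaled, robust z versus negative control wells, mean of replicates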", "scale": "TNF reporter z-score: higher = stronger TNF promoter reporter response to peptidoglycan", "active means": "In these data the active calls have TNF reporter z-score, replicate mean at about -1.5 or lower, or at about 1.5 or higher", "meaning of the calls": "active = reporter shifted beyond cut (either direction); inactive = reporter near control level", "note": "In all, the deposit lists 756 reagents; below is a random part of them. 143 of them (19%) were called active. 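Active means the reporter moved past about ±1.5 in either direction; scores are per single siRNA, not per gene; peptidoglycan dose not given.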 No sequences are given here. Not stated in the record: the amount of reagent."}
{"Target gene": "MAP2K2", "PubChem SID": "SID303070696", "TNF reporter z-score, replicate mean": 0.06, "Call": "inactive"}
{"Target gene": "MAP2K2", "PubChem SID": "SID303070697", "TNF reporter z-score, replicate mean": -0.0846, "Call": "inactive"}
{"Target gene": "MAP2K2", "PubChem SID": "SID303070698", "TNF reporter z-score, replicate mean": -1.3, "Call": "inactive"}
{"Target gene": "MAP2K2", "PubChem SID": "SID303070699", "TNF reporter z-score, replicate mean": -0.106, "Call": "inactive"}
{"Target gene": "MAP2K2", "PubChem SID": "SID303070700", "TNF reporter z-score, replicate mean": 0.232, "Call": "inactive"}
{"Target gene": "MAP2K2", "PubChem SID": "SID303070701", "TNF reporter z-score, replicate mean": 0.382, "Call": "inactive"}
{"Target gene": "TLR4", "PubChem SID": "SID303070456", "TNF reporter z-score, replicate mean": 0.816, "Call": "inactive"}
{"Target gene": "TLR4", "PubChem SID": "SID303070457", "TNF reporter z-score, replicate mean": -0.292, "Call": "inactive"}
{"Target gene": "TLR4", "PubChem SID": "SID303070458", "TNF reporter z-score, replicate mean": -0.393, "Call": "inactive"}
{"Target gene": "TLR4", "PubChem SID": "SID303070459", "TNF reporter z-score, replicate mean": 0.574, "Call": "inactive"}
{"Target gene": "TLR4", "PubChem SID": "SID303070460", "TNF reporter z-score, replicate mean": -0.327, "Call": "inactive"}
{"Target gene": "TLR4", "PubChem SID": "SID303070461", "TNF reporter z-score, replicate mean": -1.59, "Call": "active"}
{"Target gene": "TICAM2", "PubChem SID": "SID303070792", "TNF reporter z-score, replicate mean": -0.817, "Call": "inactive"}
{"Target gene": "TICAM2", "PubChem SID": "SID303070793", "TNF reporter z-score, replicate mean": 0.74, "Call": "inactive"}
{"Target gene": "TICAM2", "PubChem SID": "SID303070794", "TNF reporter z-score, replicate mean": 0.255, "Call": "inactive"}
{"Target gene": "TICAM2", "PubChem SID": "SID303070795", "TNF reporter z-score, replicate mean": 0.169, "Call": "inactive"}
{"Target gene": "TICAM2", "PubChem SID": "SID303070796", "TNF reporter z-score, replicate mean": -0.164, "Call": "inactive"}
{"Target gene": "TICAM2", "PubChem SID": "SID303070797", "TNF reporter z-score, replicate mean": -0.167, "Call": "inactive"}
{"Target gene": "ITGAX", "PubChem SID": "SID303070516", "TNF reporter z-score, replicate mean": -0.871, "Call": "inactive"}
{"Target gene": "ITGAX", "PubChem SID": "SID303070517", "TNF reporter z-score, replicate mean": 0.549, "Call": "inactive"}
{"Target gene": "ITGAX", "PubChem SID": "SID303070518", "TNF reporter z-score, replicate mean": -0.474, "Call": "inactive"}
{"Target gene": "ITGAX", "PubChem SID": "SID303070519", "TNF reporter z-score, replicate mean": -1.45, "Call": "inactive"}
{"Target gene": "ITGAX", "PubChem SID": "SID303070520", "TNF reporter z-score, replicate mean": -0.857, "Call": "inactive"}
{"Target gene": "ITGAX", "PubChem SID": "SID303070521", "TNF reporter z-score, replicate mean": -1.63, "Call": "active"}

Records above whose gene name begins with M or m (6):
{"Target gene": "MAP2K2", "PubChem SID": "SID303070696", "TNF reporter z-score, replicate mean": 0.06, "Call": "inactive"}
{"Target gene": "MAP2K2", "PubChem SID": "SID303070697", "TNF reporter z-score, replicate mean": -0.0846, "Call": "inactive"}
{"Target gene": "MAP2K2", "PubChem SID": "SID303070698", "TNF reporter z-score, replicate mean": -1.3, "Call": "inactive"}
{"Target gene": "MAP2K2", "PubChem SID": "SID303070699", "TNF reporter z-score, replicate mean": -0.106, "Call": "inactive"}
{"Target gene": "MAP2K2", "PubChem SID": "SID303070700", "TNF reporter z-score, replicate mean": 0.232, "Call": "inactive"}
{"Target gene": "MAP2K2", "PubChem SID": "SID303070701", "TNF reporter z-score, replicate mean": 0.382, "Call": "inactive"}
